The campaign covered roughly 360,000 compounds. About 9,100 (2.5%) were called active. The inconclusive results got no clear call from the source; some entries with a clear call stand among them for comparison. Cut-off read from the data, not from the text of the source: active = max response below about -50%; inconclusive = no clear call, values can overlap the other calls; inactive = above that.
Each compound was assayed against D(3) dopamine receptor (Homo sapiens) (UniProt P35462) (assay: qHTS of D3 Dopamine Receptor Antagonist: qHTS). Settings: D3R cells, DiscoveRx beta-arrestin luminescence, antagonist mode; active compounds read low.
How it was run: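 Cells plated overnight at 1500 cells/well, then exposed to library compounds with dopamine controls for 90 minutes at 37 degrees C. DiscoveRx reagent added for 30–60 minutes at room temperature; luminescence read, quantitative HTS format.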
% is set by controls: 0 for no effect and ±100 for the full control effect.

By UniProt entry, the sequences of proteins in these tests, tags left out.
UniProt P35462, whole entry, looked up: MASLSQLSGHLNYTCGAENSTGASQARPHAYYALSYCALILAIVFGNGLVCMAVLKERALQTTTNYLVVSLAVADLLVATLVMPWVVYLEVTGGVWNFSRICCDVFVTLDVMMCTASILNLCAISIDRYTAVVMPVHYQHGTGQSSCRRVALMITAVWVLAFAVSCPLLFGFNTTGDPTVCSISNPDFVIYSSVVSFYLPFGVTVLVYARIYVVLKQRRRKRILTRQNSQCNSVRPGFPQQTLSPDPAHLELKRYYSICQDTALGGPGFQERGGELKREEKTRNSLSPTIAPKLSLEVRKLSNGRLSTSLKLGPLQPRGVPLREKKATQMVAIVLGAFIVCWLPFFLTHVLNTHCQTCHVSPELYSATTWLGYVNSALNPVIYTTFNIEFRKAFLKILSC

Structure (SMILES)	max response, negative = inhibition
Cc1ccccc1CN1CCC(n2nccc2NC(=O)c2cccnc2)CC1	inconclusive: -39.5%
CCOC(=O)c1ccc(NC(=O)CSc2nc(SC)ns2)cc1	inconclusive: -37.4%
Cc1[nH]c2ccccc2c1/C=N/NC(=O)c1cccc(F)c1	inconclusive: -37.1%
c1ccc(Cn2nnnc2CN2CCCC2)cc1	inconclusive: -35.4%
Cc1cc(OCC(=O)NC2CCN(Cc3ccccc3)CC2)c2c(C)c(C)c(=O)oc2c1	active: -81.7%
O=C(O)c1c2c(nc3ccc(S(=O)(=O)N4CCC(C(=O)NC5CCCC5)CC4)cc13)CCCCC2	inconclusive: -47.8%
Cc1ccc(C=C2C(=O)c3ccccc3C2=O)s1	inconclusive: -33.8%
O=C(O)c1ccc(CSc2nnc(-c3ccc(Cl)cc3)o2)cc1	inactive: 8.7%
c1ccc(CCN2CCN=C2Nc2ccccc2)cc1	inconclusive: -33.2%
CC[C@@H](CCC=C(C)C)C(=O)N(Cc1ccccc1)c1ccccc1	inactive: -10.9%
Cc1ccc(Cl)cc1NC(=S)N/N=C/c1cccc2ccccc12	active: -53%
O=C1C(=C(O)c2ccccc2)C(=O)c2ccccc21	inconclusive: -33.5%
O=C1CC(C(=O)N2CCN(c3ccccc3O)CC2)CN1Cc1ccccc1 (configuration not stated)	inconclusive: -31.8%
CCC(C(=O)NCc1ccco1)N(Cc1cccs1)C(=O)CNS(=O)(=O)c1ccccc1 (configuration not stated)	inconclusive: -30.4%
Cc1ccc(NC(=O)NNS(=O)(=O)c2ccc(Br)cc2)cc1	inconclusive: -31.1%
O=C(NC(=S)Nc1ncc(Br)cc1Br)c1cncc(Br)c1	inconclusive: -34.6%
CCN1CCN(C(=O)c2cc3c(s2)-c2ccccc2S(=O)(=O)C3)CC1	inconclusive: -48%
CC(C)(C)c1ccc(OCC(=O)NNC(=O)CCc2ccccc2)cc1	inconclusive: -39.3%
NNC(=O)c1snnc1-c1ccccc1	inconclusive: -35.8%
COc1cccc(C(=O)O/N=C(\N)c2ccncc2)c1OC	inactive: -9.48%
O=C(Nc1ccc2c(c1)OCO2)NC1CCN(Cc2ccccc2)CC1	inconclusive: -40.6%
COc1cc(C(=O)N/N=C(\C)c2ccc(NC(=O)Cc3ccccc3)cc2)ccc1O	inactive: 1.31%

Entries shown so far containing a carbonyl joined to an NH by a bond outside any ring (12):
Structure (SMILES)	max response, negative = inhibition
Cc1ccccc1CN1CCC(n2nccc2NC(=O)c2cccnc2)CC1	inconclusive: -39.5%
CCOC(=O)c1ccc(NC(=O)CSc2nc(SC)ns2)cc1	inconclusive: -37.4%
Cc1[nH]c2ccccc2c1/C=N/NC(=O)c1cccc(F)c1	inconclusive: -37.1%
Cc1cc(OCC(=O)NC2CCN(Cc3ccccc3)CC2)c2c(C)c(C)c(=O)oc2c1	active: -81.7%
O=C(O)c1c2c(nc3ccc(S(=O)(=O)N4CCC(C(=O)NC5CCCC5)CC4)cc13)CCCCC2	inconclusive: -47.8%
CCC(C(=O)NCc1ccco1)N(Cc1cccs1)C(=O)CNS(=O)(=O)c1ccccc1 (configuration not stated)	inconclusive: -30.4%
Cc1ccc(NC(=O)NNS(=O)(=O)c2ccc(Br)cc2)cc1	inconclusive: -31.1%
O=C(NC(=S)Nc1ncc(Br)cc1Br)c1cncc(Br)c1	inconclusive: -34.6%
CC(C)(C)c1ccc(OCC(=O)NNC(=O)CCc2ccccc2)cc1	inconclusive: -39.3%
NNC(=O)c1snnc1-c1ccccc1	inconclusive: -35.8%
O=C(Nc1ccc2c(c1)OCO2)NC1CCN(Cc2ccccc2)CC1	inconclusive: -40.6%
COc1cc(C(=O)N/N=C(\C)c2ccc(NC(=O)Cc3ccccc3)cc2)ccc1O	inactive: 1.31%

Going on with the list.

Structure (SMILES)	max response, negative = inhibition
O=C(Nc1ccccc1C(=O)NCc1ccc(Cl)cc1)c1ccco1	inactive: 3.21%
O=C(NC(=S)N1CCc2ccccc21)c1ccccc1Cl	inconclusive: -32.2%
CCN(CC)CCNC(=O)C1(O)c2cc(Br)ccc2NC(=O)N1c1c(F)cccc1F (configuration not stated)	inactive: -0.706%
CC(C)(C)c1ccc(C(=O)OCC(=O)Nc2sc3c(c2C#N)CCC3)cc1	inactive: 0%
COc1cc(OC)cc(C(=O)N[C@H](C(=O)OCc2cc(=O)oc3cc(C)ccc23)C(C)C)c1	inactive: 0.123%
CCOc1ccc(N(CC(=O)NCc2ccccc2)S(=O)(=O)c2c(C)noc2C)cc1	inconclusive: -34.6%
C[C@H]1CN([C@@H](C)CO)C(=O)CCCn2nncc2CO[C@H]1CN(C)S(=O)(=O)c1ccc2ccccc2c1	inactive: -17.7%
C=CCN(CC=C)CCCOc1ccc(C)cc1OC	inconclusive: -30.3%
C=CCn1c(SCc2c(F)c(F)c(F)c(F)c2F)nc(O)cc1=O	inactive: 3.54%
CN(C)c1ccc(N=Nc2cccc3ccoc23)cc1	inconclusive: -39.6%
CNCC[C@@H](Oc1ccccc1C)c1ccccc1	active: -57.4%
CN(C)CCCNC1CS(=O)(=O)CC1O (configuration not stated)	inconclusive: -34.7%
O=[N+]([O-])c1cccc(/C=N/NC2=NCCCCC2)c1	inconclusive: -30.1%
C[C@H]1CN([C@@H](C)CO)C(=O)c2cc(Br)cnc2O[C@H]1CN(C)C(=O)C1CCC1	inconclusive: -32.8%
COc1ccc(C=C2C(=O)OC(C)(C)OC2=O)cc1OC	inactive: -0.348%
CCOC(=O)c1[nH]c2ccc(OC)cc2c1NC(=O)c1ccccc1C(=O)O	inconclusive: -34.5%
CS(=O)(=O)N(CC(=O)Nc1cccc(Cl)c1Cl)c1ccccc1	inactive: -3.03%
Cc1ccc(C(c2nnnn2C2CCCC2)N2CCN3CCCC3C2)cc1 (configuration not stated)	inconclusive: -36.6%
CCCC(C)NC(=O)CN(Cc1ccco1)S(=O)(=O)c1ccccc1 (configuration not stated)	inconclusive: -30.8%
Cc1ccc(NC(=O)CSc2ncccn2)cc1S(=O)(=O)N1CCOCC1	inconclusive: -32.8%
N=c1c2c(n(Cc3cccc(Cl)c3)c3c1CCC3)CCCC2	inactive: -24.2%
O=C(CN1CCN(Cc2ccccc2Cl)C1=O)NC1CCCCCC1	inconclusive: -30.2%

Structure (SMILES)	max response, negative = inhibition
Cc1ccccc1NC(=O)CSc1nc2cc3c(cc2cc1C)CCC3	inconclusive: -34.6%
CC(C)(NC(=O)N1CCCC1)c1cccc(C(C)(C)NC(=O)N2CCCC2)c1	inconclusive: -40.3%
C=CCn1c(SCc2ccccc2Cl)nnc1-c1sc2nc(C)cc(C)c2c1N	inactive: 33.4%
O[C@@H]1CN(Cc2ccc(-n3cccn3)cc2)CC[C@H]1N1CCN(c2ccccc2F)CC1	inconclusive: -37.6%
CCNC(=S)NC1CC2CCC(C1)N2Cc1ccccc1 (configuration not stated)	active: -76.3%
C[C@H]1[C@H]2c3nc4ccccc4n3C[C@H]1ON2C1CCCCC1	inconclusive: -43.6%
COc1ccc(NC(=O)C2CCN(c3cnccn3)CC2)cc1Cl	inactive: 7.85%
Cc1ccc(S(=O)(=O)N2CCC(C(=O)Nc3ccc4c(c3)COC4=O)CC2)cc1	active: -65%
COCCNC(=O)Cn1cnc2c(cnn2-c2ccc(OC)cc2)c1=O	inactive: -1.51%
O=C(NC(=O)N1CCCc2ccccc21)c1ccccc1	inactive: 2.57%
COc1ccc(-c2cc(-c3ccccc3)c(C#N)c(SCC(=O)Nc3ncc(C)s3)n2)cc1	inconclusive: -30.2%
COc1ccc(Cl)cc1NC(=O)C(C)N1CCN(C/C=C/c2ccccc2)CC1 (configuration not stated)	inconclusive: -36.8%
CCN1CCN(C(=O)Cn2ncc3ccsc3c2=O)CC1	inconclusive: -30.4%
OC(c1ccccc1)(c1ccccc1)C1CCN(CCCOc2cccc(OC(F)(F)F)c2)CC1	active: -80.5%
CC(=O)N[C@@H](C)c1nc2ccccc2n1CCCN1CCN(c2nc(-c3ccc(C)cc3)cs2)CC1	inactive: 10.4%
COc1ccc(C(c2nnnn2Cc2ccc(F)cc2)N2CCN(c3ccc(OC)cc3)CC2)cc1 (configuration not stated)	inconclusive: -37.7%
O=C1c2ccccc2C2=Nc3ccccc3SC(c3ccccc3F)C12 (configuration not stated)	inconclusive: -34.8%
O=C(COC(=O)Cn1[nH]c(=O)c2ccccc2c1=O)NNC(=O)c1ccc(Br)cc1	active: -118%
O=C(CCC(=O)c1cccs1)NCc1ccc(F)cc1	inconclusive: -37.7%
N#Cc1ccc(OCCN2CCc3ccccc3C2)cc1	active: -78.8%
FC(F)(F)Oc1ccccc1C(c1nnnn1-c1ccc2c(c1)OCCO2)N1CCN(C/C=C/c2ccccc2)CC1 (configuration not stated)	active: -57.2%
CCc1nc2c(OCc3ccc(Cl)cc3Cl)cccn2c1N(C)C(=O)c1ccccc1F	inconclusive: -45.2%

Structure (SMILES)	max response, negative = inhibition
NC(=O)c1cc2cc(Cl)ccc2oc1=O	inconclusive: -39.5%
COc1ccc(-n2nc(C(=O)NCC(=O)NCc3ccco3)c3ccccc3c2=O)cc1Cl	inactive: 23.7%
O=C1CC(c2ccccc2)CC(O)=C1C=Nc1cccc(Cl)c1 (configuration not stated)	inconclusive: -47.9%
CCOc1ccccc1C(=O)N1c2ccccc2Sc2ccccc21	inconclusive: -32.8%
O=C(CC(=O)Nc1ccccc1[N+](=O)[O-])Nc1ccccc1[N+](=O)[O-]	active: -63.9%
COc1ccc(-c2n[nH]c(C)c2-c2ccc(Cl)cc2)c(O)c1	inconclusive: -33.9%
CC(=O)Nc1cccc(NC(=O)c2ccccc2OCc2c(C)noc2C)c1	inactive: 2.03%
Cc1cc(C)c2sc(NC(=O)c3ccc([N+](=O)[O-])o3)nc2c1	inconclusive: -49.8%
O=Cc1cn(CCOc2ccccc2)c2ccccc12	inactive: 0.0392%
Nc1c(C(=O)c2ccccc2)sc2c1c(=O)[nH]c(=O)n2-c1ccccc1	active: -52.8%
CC(NC(=O)CN(C)S(=O)(=O)c1ccc(F)cc1)C1CC2CCC1C2 (configuration not stated)	inconclusive: -30.7%
Cc1noc2ncnc(Oc3ccc(F)cc3)c12	inconclusive: -37%
O=C(CCc1ccccc1)N=C1SC2CS(=O)(=O)CC2N1c1cccc(F)c1 (configuration not stated)	inactive: -0.889%
COc1ccc(C2CC(=O)c3ccccc3O2)cc1 (configuration not stated)	inconclusive: -49.8%
Cc1ccc(-c2cc(C(F)F)nc(S(C)(=O)=O)n2)cc1	inconclusive: -38.3%
C#CCOCCOCCOCCNc1nc(N2CCN(C(=O)[C@H]([C@@H](C)CC)n3cc([C@@H](N)Cc4ccc(O)cc4)nn3)CC2)nc(N2CCN(C(=O)[C@H](Cc3cc4ccccc4[nH]3)n3cc([C@@H](N)CC(C)C)nn3)CC2)n1	active: -50.3%
O=c1c2ccccc2[nH]c(=S)n1CCCN1CCN(c2ccccc2F)CC1	active: -99.1%
COC(=O)[C@]12CCCCC=C1N(Cc1ccc(Cl)cc1Cl)C(=O)[C@H](CC(=O)NCC13CC4CC(CC(C4)C1)C3)C2	inactive: -23.4%
Cc1ccc(C2/C(=C(/O)c3cnn(-c4ccccc4)c3C)C(=O)C(=O)N2CCN2CCOCC2)o1 (configuration not stated)	inconclusive: -48%
Cc1ccccc1-c1nc2ccccc2c(=O)o1	inconclusive: -43%
Cc1[nH]c(=S)[nH]c(=O)c1CCOc1ccccc1	inconclusive: -47.5%

A draw from above in order of length of the SMILES, largest number first:
Structure (SMILES)	max response, negative = inhibition
CCN(CC)CCNC(=O)C1(O)c2cc(Br)ccc2NC(=O)N1c1c(F)cccc1F (configuration not stated)	inactive: -0.706%
O=C(NC(=O)N1CCCc2ccccc21)c1ccccc1	inactive: 2.57%
NC(=O)c1cc2cc(Cl)ccc2oc1=O	inconclusive: -39.5%

Source: PubChem BioAssay AID652054 (National Center for Advancing Translational Sciences (NCATS), 2013)
